Data on 1 substance can be found in publication PMC4770304.

The chains behind the UniProt entries cited, without tags or fusion partners.
UniProt Q27J81: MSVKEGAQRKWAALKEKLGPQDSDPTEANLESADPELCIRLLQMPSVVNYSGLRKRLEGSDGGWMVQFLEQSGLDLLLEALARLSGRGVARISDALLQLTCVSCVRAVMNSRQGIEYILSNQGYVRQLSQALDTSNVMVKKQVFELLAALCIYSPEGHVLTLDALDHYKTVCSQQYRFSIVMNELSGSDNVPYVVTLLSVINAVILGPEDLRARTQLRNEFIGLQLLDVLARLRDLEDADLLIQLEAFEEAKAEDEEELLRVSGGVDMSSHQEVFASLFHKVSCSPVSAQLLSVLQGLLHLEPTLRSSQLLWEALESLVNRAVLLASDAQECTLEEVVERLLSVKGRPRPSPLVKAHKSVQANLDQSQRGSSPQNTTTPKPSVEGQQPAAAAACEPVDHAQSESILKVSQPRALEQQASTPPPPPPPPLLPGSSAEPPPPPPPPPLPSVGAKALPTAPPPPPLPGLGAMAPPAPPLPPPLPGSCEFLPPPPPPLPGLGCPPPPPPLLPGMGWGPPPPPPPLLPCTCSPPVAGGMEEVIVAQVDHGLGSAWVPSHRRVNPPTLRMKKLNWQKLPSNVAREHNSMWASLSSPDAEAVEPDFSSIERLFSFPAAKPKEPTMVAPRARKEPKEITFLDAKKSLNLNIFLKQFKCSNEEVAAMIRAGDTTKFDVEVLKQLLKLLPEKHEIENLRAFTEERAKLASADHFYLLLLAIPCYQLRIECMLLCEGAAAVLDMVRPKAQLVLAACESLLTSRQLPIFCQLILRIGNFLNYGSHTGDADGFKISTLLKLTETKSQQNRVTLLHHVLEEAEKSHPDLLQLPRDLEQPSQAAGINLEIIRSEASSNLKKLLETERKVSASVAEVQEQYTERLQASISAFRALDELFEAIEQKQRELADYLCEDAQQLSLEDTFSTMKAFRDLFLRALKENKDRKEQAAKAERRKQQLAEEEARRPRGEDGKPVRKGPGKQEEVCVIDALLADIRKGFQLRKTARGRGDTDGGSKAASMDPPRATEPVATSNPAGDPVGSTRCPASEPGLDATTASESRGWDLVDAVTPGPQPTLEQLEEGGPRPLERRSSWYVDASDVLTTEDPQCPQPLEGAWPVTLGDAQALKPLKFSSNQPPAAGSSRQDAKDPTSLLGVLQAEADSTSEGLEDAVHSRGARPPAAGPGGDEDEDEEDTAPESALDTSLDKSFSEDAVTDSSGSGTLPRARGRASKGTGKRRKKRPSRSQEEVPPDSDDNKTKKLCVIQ
UniProt P35080: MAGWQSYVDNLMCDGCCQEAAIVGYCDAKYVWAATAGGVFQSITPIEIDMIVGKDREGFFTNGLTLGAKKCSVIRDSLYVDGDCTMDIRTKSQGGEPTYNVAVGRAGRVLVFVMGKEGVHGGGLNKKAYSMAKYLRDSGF

These are yes or no findings as the source states them, for the method shown. In cells and extracts the contact can be indirect. Here binding means that the protein was enriched with, or labelled near, the bait; the list need not be complete.

The test has as its target GFP–INF2 (wild type) expressed in human podocytes (UniProt Q27J81). The experiment in a line: affinity purification with mass spectrometry; GFP-Trap from lysates of differentiated human podocytes transduced with GFP–INF2 or GFP lentivirus; SDS/PAGE, in-gel tryptic digestion, LC–MS/MS (Orbitrap Velos).

Turning to profilin 2 (from UniProt P35080 1-140), the binding result is “binds”.
